Assay results: doi:10.1101/2020.12.22.404020
These are yes or no findings as the source states them, for the method shown. Binding seen in cells or lysates may run through a third protein. Some results given as binding are weak or reduced against the parent protein; the word gives no strength.

Chains of the proteins cited; added tags and fusions are not shown.
UniProt O00139: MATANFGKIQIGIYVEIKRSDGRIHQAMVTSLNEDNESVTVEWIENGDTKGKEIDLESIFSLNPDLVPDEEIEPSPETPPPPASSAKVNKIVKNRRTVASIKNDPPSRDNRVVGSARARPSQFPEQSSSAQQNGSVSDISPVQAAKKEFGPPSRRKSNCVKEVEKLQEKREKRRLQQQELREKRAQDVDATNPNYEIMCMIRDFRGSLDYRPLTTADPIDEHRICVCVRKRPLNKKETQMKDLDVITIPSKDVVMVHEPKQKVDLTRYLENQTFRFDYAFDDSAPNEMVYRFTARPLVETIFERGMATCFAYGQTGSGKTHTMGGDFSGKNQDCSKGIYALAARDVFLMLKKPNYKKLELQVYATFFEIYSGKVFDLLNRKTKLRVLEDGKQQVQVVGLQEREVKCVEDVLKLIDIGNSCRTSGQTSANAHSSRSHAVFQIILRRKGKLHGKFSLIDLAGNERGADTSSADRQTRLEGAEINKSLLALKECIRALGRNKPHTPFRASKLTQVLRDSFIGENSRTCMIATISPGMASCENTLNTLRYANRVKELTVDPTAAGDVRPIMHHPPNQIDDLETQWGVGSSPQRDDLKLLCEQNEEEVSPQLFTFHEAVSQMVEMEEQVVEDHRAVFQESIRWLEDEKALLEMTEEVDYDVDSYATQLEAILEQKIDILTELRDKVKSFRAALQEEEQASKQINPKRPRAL
UniProt P53350: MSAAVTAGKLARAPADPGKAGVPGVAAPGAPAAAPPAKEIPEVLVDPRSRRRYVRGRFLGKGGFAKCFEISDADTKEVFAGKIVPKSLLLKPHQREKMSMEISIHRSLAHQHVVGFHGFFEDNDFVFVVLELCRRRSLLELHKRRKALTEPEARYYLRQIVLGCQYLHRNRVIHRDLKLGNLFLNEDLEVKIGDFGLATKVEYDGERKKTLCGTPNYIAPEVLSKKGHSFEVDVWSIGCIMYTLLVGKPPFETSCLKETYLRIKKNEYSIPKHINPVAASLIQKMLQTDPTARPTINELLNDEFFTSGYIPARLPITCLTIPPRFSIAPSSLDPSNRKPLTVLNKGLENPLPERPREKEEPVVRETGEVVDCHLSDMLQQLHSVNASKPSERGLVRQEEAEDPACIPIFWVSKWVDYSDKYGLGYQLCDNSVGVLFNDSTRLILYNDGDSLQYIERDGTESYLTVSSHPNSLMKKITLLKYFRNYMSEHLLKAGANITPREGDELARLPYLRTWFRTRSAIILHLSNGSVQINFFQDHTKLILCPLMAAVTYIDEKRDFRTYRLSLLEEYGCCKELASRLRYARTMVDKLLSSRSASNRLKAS
UniProt O15169: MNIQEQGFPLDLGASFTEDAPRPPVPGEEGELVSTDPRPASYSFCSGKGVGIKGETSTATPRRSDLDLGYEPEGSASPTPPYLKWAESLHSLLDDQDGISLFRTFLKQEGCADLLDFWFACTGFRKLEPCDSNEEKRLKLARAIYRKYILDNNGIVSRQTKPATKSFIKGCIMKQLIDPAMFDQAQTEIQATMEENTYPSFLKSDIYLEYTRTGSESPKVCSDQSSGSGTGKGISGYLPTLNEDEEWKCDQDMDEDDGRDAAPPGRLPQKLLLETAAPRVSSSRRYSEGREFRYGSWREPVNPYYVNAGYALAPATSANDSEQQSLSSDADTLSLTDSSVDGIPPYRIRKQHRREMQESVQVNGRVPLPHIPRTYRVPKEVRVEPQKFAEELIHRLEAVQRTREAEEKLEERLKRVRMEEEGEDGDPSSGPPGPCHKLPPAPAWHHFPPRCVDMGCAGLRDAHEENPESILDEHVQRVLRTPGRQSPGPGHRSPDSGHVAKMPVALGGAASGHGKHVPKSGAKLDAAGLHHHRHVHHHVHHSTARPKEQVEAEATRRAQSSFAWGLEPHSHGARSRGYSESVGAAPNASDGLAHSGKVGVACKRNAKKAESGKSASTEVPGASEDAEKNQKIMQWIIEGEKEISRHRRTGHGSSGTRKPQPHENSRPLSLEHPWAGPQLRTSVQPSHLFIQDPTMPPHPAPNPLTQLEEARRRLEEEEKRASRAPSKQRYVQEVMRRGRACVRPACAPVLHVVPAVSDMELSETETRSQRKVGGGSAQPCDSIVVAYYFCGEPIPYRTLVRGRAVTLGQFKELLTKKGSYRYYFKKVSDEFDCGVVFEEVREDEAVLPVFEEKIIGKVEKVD
UniProt P49674: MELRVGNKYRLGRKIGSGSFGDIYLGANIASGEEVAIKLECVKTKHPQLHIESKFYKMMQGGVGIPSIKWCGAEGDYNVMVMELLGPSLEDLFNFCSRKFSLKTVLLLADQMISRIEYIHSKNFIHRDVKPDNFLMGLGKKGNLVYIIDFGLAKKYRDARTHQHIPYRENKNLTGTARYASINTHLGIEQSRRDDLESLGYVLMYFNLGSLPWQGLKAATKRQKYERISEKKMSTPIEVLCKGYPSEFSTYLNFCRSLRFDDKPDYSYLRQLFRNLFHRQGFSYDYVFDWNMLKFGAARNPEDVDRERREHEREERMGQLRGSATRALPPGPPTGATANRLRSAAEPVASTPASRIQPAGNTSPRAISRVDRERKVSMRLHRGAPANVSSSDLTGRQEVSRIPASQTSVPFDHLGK
UniProt P35222: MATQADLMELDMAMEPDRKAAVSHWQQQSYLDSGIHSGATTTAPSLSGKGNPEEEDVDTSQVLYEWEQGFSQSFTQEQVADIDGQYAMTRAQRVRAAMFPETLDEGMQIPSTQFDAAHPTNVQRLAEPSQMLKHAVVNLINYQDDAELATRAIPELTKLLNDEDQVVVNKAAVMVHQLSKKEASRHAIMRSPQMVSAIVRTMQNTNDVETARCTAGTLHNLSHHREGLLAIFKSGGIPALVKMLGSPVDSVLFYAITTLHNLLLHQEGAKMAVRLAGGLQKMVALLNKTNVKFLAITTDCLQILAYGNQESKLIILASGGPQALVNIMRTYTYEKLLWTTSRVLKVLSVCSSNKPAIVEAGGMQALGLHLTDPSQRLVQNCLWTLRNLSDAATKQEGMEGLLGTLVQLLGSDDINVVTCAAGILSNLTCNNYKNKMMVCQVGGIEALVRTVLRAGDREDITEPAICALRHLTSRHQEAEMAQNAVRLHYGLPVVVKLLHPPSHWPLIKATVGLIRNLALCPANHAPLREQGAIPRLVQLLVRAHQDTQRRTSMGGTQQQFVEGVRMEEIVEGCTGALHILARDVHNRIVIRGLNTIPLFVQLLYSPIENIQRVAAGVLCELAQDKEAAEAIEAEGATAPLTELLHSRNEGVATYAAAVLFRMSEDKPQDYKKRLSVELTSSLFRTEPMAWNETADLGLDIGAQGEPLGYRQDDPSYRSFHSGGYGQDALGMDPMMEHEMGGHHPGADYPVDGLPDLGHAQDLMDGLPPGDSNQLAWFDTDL
UniProt P49841: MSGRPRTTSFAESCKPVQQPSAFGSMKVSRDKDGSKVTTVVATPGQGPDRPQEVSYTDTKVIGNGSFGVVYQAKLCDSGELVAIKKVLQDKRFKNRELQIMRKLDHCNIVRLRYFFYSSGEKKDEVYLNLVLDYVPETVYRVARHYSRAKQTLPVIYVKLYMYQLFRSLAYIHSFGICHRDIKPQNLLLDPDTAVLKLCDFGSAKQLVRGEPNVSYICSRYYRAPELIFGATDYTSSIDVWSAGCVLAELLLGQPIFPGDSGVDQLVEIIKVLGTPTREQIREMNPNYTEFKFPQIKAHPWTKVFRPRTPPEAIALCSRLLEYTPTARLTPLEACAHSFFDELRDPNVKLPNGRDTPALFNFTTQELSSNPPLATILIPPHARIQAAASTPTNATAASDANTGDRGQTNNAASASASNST
UniProt Q9Y297: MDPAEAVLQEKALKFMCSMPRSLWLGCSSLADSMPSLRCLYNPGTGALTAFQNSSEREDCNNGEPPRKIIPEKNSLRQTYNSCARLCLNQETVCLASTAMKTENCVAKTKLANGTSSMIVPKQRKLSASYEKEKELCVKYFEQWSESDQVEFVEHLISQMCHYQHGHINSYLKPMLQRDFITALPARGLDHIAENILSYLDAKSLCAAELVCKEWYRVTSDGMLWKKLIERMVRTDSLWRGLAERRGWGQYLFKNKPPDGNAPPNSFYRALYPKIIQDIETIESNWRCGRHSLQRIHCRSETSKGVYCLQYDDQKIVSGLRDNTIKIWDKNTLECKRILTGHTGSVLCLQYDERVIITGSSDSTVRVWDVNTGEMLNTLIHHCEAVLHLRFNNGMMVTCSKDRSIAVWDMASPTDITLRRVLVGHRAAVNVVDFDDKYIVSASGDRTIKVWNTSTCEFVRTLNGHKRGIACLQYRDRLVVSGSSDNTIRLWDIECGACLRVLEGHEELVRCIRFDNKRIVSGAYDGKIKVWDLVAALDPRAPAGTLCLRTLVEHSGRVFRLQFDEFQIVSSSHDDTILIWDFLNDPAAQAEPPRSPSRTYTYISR

target: endogenous KIF2A (human (endogenous in HeLa)) (UniProt O00139); experiment: proximity ligation

binding	Substance
binds	endogenous PLK1 (from UniProt P53350 1-603) (enzyme)

target: EGFP-KIF2A (UniProt O00139); experiment: proximity ligation

binding	Substance
binds	FLAG-Axin1 (from UniProt O15169 1-862)
no binding	FLAG-hCK1ε (from UniProt P49674 1-416) (enzyme)
no binding	FLAG-β-catenin (from UniProt P35222 1-781)

Continued, substance first:

Substance	binding
FLAG-GSK3 (from UniProt P49841 1-420) (enzyme)	no binding
FLAG-β-TrCP (from UniProt Q9Y297 1-605)	no binding
